These are yes or no findings as the source states them, for the method shown. Binding seen in cells or lysates may run through a third protein. Some binding calls cover weakened binding; strength is not graded here.
T1: NRPE2 (Arabidopsis thaliana (endogenous in seedlings)) (UniProt Q9LK40)
T1 sequence: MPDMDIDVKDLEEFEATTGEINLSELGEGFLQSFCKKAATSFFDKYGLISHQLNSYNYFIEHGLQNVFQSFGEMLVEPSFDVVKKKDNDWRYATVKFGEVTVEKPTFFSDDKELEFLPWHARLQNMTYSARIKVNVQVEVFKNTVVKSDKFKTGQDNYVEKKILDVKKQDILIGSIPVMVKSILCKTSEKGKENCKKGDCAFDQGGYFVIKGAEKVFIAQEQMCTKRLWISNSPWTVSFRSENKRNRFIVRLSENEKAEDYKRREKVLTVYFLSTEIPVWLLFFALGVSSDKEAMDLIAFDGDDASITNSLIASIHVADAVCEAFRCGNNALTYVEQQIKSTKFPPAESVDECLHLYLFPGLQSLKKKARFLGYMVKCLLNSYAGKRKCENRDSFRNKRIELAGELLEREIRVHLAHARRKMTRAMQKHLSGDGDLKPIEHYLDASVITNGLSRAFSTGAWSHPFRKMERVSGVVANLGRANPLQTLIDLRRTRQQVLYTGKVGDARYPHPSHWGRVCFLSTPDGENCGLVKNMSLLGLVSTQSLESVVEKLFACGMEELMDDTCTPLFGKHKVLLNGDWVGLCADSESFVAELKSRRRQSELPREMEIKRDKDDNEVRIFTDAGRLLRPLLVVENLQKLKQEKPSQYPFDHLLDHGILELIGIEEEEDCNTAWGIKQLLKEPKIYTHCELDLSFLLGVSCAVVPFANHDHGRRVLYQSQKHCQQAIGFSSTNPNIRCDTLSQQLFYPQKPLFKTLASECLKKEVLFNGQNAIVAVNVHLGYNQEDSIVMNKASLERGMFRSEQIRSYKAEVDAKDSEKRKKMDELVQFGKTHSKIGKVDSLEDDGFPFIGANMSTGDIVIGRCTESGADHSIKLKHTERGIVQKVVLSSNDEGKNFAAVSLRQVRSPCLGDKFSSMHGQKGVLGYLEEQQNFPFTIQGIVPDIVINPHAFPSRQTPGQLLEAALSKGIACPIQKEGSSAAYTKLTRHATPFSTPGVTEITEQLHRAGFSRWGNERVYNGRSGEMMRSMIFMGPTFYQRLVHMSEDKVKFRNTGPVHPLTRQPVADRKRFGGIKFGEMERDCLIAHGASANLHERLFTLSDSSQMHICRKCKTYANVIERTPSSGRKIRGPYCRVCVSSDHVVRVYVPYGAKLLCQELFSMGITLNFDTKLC

Chains of the proteins cited; added tags and fusions are not shown.
UniProt Q5D869: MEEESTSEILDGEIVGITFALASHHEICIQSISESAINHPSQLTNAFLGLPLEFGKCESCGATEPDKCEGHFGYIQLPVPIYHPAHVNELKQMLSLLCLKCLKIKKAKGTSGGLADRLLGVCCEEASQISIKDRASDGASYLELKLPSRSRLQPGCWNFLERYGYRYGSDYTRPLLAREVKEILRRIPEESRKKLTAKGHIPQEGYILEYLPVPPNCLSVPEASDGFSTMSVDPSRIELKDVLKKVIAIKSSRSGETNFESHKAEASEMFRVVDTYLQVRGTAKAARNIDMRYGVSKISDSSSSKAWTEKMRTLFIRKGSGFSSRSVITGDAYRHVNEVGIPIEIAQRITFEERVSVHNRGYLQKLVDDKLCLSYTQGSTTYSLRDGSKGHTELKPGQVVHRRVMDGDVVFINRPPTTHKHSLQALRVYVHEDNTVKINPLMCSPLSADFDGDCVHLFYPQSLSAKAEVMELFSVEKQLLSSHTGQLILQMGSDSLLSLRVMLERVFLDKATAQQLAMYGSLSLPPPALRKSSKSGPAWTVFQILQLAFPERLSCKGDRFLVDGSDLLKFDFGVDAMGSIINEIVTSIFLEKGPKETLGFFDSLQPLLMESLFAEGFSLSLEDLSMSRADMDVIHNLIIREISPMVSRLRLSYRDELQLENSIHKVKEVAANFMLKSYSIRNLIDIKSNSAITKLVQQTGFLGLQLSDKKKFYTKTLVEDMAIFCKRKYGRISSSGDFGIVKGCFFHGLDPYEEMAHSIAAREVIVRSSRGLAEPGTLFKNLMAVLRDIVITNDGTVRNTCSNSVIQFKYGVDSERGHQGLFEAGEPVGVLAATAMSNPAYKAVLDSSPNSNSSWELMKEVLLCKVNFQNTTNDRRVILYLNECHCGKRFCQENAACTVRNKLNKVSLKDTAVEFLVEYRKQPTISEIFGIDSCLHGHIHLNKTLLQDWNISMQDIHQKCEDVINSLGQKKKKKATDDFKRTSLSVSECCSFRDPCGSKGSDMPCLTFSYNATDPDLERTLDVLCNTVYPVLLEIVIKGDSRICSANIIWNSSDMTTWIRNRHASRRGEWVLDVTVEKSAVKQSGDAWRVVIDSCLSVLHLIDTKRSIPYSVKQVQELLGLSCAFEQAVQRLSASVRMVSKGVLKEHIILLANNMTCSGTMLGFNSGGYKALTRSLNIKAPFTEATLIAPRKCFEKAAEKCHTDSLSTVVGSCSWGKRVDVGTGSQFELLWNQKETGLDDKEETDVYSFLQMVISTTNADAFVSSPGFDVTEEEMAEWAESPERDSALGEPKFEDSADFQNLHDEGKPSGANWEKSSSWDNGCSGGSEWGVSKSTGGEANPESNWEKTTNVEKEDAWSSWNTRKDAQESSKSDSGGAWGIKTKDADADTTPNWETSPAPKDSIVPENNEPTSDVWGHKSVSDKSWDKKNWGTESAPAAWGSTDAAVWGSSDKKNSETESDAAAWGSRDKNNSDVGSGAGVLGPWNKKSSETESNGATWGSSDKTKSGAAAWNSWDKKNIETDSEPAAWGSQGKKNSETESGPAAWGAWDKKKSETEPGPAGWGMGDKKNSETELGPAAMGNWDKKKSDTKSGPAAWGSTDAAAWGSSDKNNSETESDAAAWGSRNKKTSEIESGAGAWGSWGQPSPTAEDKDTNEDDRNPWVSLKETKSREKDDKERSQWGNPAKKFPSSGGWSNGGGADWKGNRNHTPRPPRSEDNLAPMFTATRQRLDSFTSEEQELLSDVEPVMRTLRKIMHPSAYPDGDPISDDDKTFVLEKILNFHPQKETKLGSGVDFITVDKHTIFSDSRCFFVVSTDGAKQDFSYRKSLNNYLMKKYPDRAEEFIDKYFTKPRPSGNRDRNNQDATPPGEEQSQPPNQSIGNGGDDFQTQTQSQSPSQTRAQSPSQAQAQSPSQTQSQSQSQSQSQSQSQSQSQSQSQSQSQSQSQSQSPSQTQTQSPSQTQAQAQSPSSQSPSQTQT
UniProt Q9FJ98: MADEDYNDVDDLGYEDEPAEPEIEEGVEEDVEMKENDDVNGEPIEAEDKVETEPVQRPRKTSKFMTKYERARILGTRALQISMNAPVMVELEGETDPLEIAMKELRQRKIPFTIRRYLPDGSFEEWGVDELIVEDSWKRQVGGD
UniProt Q9FJW0: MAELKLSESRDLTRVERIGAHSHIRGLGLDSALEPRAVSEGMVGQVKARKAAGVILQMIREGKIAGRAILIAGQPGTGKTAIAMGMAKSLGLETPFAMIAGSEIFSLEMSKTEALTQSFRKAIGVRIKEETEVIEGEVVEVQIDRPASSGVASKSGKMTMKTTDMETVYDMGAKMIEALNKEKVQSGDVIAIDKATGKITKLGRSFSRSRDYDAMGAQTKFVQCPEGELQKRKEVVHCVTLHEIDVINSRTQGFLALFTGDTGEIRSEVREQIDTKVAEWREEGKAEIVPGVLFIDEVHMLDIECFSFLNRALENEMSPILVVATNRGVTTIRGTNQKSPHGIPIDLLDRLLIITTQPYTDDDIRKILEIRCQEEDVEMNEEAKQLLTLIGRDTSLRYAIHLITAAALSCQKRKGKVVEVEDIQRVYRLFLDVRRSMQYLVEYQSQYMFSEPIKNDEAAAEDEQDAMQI
UniProt Q9FMR9: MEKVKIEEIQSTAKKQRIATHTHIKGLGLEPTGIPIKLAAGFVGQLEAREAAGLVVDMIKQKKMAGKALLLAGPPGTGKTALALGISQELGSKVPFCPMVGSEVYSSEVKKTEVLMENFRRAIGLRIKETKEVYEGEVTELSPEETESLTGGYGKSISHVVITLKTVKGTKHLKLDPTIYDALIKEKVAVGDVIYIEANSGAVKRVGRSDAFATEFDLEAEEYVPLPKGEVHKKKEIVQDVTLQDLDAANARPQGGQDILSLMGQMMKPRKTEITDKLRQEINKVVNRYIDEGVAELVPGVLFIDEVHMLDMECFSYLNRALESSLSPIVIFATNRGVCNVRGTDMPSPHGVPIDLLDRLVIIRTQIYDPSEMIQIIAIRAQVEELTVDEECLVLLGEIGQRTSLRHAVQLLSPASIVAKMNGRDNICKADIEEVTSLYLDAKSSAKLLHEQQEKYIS


Assays:
[1] = molecular target: NRPE1-FLAG (largest subunit of nuclear RNA polymerase V) (Arabidopsis thaliana) (UniProt Q5D869); experiment: cross-linking; Pol V complex held on dimethylated anti-FLAG beads, washed with 1 M NaCl lysis buffer, cross-linked on the beads with 5 mM BS3 in 30 mM HEPES pH 7.5, 150 mM NaCl, 1 h, room temperature; trypsin (FASP), LC MS/MS, Batch-Tag search
[2] = molecular target: T1, NRPE2 (Arabidopsis thaliana (endogenous in seedlings)); experiment: cross-linking; Pol V complex immunopurified on dimethylated anti-FLAG beads, washed with 1 M NaCl lysis buffer, cross-linked on beads with 5 mM BS3 in 30 mM HEPES pH 7.5, 150 mM NaCl, 1 h, room temperature; trypsin (FASP); LC MS/MS, Batch-Tag search for inter-crosslinked peptides
[3] = molecular target: T1, NRPE2 (Arabidopsis thaliana (endogenous in seedlings)); experiment: cross-linking; Pol V complex held on dimethylated anti-FLAG beads, washed with 1 M NaCl lysis buffer, cross-linked on the beads with 5 mM BS3 in 30 mM HEPES pH 7.5, 150 mM NaCl, 1 h, room temperature; trypsin (FASP), LC MS/MS, Batch-Tag search

binding [1] | binding [2] | binding [3] | Molecule
binds |  |  | NRPE6a (from UniProt Q9FJ98 1-144)
binds |  |  | RuvB-like helicase (from UniProt Q9FJW0 1-469)
binds |  |  | RuvB-like protein 1 (RIN1) (from UniProt Q9FMR9 1-458)
 | binds | binds | NRPE4 (protein, UniProt Q6DBA5 1-205) MSEKGGKGLKSSLKSKDGGKDGSSTKLKKGRKIHFDQRTPPANYKILNVSSDQQPFQSSAAKCGKSDKPTKSSKNSLHSFELKDLPENAECMMDCEAFQILDGIKGQLVGLSEDPSIKIPVSYDRALAYVESCVHYTNPQSVRKVLEPLKTYGISDGEMCVIANASSESVDEVLAFIPSLKTKKEVINQPLQDALEELSKLKKSE

From PMC5320500
